Test results as given in the supplement of paper PMC10849652.
Some of the results follow.

Sequences of proteins named here, by UniProt entry; tags and fusion partners are left off. A change or cut given only in a name is not applied to a line headed by its entry.
UniProt Q9Y2Z2: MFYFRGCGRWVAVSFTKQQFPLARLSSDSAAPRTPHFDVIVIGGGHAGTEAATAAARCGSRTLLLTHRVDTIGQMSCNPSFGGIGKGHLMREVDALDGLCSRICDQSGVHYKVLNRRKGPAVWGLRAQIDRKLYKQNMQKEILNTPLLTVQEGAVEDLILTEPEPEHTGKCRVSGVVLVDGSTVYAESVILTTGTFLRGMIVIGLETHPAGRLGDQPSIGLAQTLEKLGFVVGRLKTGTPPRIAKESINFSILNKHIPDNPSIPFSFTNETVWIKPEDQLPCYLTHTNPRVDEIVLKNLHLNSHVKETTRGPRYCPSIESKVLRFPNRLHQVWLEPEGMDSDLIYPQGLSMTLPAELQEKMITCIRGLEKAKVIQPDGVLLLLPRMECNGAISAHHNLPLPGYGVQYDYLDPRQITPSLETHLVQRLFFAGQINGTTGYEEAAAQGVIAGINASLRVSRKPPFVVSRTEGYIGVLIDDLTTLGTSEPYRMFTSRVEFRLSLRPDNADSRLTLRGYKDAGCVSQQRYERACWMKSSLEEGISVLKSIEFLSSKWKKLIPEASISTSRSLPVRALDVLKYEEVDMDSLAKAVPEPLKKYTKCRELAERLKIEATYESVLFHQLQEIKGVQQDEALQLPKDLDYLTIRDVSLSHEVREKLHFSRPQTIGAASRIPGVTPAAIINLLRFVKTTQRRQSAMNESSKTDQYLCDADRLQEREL
UniProt Q969V6: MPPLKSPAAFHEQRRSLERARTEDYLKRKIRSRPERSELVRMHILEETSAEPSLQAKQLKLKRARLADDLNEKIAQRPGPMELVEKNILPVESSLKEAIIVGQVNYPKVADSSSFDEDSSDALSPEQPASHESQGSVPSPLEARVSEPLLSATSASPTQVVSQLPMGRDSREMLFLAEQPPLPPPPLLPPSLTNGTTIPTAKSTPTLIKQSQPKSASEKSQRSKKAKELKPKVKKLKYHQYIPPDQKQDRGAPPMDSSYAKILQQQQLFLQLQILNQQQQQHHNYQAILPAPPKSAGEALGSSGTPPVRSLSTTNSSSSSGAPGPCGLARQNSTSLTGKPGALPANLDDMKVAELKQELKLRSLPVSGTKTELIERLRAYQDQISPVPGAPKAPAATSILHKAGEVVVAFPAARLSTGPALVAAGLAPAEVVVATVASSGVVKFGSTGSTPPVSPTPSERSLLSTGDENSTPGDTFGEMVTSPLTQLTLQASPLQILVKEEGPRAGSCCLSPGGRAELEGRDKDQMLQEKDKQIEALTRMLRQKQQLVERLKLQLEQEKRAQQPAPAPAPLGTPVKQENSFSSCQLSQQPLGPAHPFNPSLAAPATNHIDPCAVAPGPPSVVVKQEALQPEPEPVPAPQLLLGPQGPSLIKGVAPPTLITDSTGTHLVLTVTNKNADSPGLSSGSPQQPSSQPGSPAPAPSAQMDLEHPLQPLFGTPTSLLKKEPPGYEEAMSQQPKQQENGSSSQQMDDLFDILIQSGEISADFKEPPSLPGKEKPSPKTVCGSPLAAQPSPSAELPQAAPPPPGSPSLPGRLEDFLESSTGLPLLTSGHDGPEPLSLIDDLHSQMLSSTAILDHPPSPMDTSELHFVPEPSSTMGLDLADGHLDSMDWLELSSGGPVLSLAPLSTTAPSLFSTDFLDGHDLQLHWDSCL
UniProt O75570: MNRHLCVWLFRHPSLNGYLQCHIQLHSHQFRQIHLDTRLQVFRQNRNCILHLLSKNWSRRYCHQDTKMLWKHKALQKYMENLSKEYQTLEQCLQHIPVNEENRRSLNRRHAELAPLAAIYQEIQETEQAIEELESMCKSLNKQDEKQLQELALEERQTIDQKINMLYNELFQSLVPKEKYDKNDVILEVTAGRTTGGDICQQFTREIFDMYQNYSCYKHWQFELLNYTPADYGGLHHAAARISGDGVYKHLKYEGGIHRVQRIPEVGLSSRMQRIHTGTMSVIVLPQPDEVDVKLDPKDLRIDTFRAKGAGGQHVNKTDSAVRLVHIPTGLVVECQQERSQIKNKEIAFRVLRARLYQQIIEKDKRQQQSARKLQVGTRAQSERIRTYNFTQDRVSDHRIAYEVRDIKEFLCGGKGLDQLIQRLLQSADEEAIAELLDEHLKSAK
UniProt Q93083: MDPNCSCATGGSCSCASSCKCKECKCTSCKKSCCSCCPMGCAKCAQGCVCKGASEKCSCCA
UniProt O15457: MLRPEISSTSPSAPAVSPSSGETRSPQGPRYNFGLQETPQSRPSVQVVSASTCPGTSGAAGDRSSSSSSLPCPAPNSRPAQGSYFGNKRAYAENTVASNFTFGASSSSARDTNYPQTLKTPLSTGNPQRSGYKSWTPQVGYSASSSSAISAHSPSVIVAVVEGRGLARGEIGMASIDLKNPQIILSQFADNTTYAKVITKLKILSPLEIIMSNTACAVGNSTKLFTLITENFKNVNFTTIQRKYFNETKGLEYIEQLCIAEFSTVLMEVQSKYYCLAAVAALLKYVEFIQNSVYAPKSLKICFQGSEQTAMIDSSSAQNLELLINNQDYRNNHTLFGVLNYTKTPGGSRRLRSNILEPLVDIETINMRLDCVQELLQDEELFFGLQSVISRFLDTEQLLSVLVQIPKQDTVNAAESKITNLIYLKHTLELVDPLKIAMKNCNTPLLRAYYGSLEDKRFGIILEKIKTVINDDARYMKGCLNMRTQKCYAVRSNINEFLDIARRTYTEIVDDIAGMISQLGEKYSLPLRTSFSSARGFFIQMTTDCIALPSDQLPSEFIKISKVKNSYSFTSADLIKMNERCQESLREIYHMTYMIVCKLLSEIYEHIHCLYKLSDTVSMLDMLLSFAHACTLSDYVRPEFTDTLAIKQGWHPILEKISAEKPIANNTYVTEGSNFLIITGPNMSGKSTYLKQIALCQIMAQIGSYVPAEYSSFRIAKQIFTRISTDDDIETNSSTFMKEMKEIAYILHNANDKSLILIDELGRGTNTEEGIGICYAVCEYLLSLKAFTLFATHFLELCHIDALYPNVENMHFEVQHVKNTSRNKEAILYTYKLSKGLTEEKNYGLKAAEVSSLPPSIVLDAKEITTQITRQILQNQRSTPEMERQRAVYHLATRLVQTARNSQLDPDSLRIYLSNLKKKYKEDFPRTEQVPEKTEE
UniProt Q8N5Y2: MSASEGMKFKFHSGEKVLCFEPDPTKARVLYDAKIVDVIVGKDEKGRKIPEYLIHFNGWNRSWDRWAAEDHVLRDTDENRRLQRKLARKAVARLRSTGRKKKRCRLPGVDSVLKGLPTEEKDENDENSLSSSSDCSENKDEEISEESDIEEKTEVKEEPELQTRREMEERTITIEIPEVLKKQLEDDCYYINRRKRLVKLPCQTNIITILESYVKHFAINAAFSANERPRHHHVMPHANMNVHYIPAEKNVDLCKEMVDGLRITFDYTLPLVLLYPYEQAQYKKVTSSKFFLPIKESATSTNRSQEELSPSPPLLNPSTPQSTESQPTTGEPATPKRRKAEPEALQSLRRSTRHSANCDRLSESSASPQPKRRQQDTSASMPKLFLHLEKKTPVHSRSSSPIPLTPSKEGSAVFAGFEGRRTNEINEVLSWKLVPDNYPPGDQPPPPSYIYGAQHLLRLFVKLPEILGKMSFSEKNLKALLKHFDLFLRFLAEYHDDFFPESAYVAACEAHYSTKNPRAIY
UniProt Q9NVV4: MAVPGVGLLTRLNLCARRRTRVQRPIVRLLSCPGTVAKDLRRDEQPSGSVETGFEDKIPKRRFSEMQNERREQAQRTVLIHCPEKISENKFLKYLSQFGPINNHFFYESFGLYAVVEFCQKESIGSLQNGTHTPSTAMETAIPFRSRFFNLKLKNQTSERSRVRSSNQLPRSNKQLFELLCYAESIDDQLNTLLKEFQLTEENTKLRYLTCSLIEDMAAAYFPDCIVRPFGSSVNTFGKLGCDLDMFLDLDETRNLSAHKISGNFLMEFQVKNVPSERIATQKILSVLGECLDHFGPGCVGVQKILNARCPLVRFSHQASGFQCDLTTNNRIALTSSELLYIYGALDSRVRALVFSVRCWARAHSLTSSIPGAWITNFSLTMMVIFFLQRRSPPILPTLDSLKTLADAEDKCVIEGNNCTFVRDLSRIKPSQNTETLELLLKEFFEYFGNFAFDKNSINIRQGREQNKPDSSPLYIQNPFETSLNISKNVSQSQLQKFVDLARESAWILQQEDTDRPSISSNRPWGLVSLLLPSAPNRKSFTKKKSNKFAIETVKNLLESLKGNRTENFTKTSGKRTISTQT
UniProt Q96DP5: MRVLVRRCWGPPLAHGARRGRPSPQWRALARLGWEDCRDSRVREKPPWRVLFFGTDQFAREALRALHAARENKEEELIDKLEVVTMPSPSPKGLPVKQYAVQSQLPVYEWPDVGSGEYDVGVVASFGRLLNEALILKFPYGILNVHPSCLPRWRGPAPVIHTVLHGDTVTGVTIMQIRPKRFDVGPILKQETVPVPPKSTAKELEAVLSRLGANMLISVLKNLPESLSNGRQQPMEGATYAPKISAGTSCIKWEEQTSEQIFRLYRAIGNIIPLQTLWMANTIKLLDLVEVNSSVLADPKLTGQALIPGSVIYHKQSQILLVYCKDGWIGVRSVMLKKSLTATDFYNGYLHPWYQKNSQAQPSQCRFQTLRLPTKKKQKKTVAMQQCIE
UniProt Q9NXD2: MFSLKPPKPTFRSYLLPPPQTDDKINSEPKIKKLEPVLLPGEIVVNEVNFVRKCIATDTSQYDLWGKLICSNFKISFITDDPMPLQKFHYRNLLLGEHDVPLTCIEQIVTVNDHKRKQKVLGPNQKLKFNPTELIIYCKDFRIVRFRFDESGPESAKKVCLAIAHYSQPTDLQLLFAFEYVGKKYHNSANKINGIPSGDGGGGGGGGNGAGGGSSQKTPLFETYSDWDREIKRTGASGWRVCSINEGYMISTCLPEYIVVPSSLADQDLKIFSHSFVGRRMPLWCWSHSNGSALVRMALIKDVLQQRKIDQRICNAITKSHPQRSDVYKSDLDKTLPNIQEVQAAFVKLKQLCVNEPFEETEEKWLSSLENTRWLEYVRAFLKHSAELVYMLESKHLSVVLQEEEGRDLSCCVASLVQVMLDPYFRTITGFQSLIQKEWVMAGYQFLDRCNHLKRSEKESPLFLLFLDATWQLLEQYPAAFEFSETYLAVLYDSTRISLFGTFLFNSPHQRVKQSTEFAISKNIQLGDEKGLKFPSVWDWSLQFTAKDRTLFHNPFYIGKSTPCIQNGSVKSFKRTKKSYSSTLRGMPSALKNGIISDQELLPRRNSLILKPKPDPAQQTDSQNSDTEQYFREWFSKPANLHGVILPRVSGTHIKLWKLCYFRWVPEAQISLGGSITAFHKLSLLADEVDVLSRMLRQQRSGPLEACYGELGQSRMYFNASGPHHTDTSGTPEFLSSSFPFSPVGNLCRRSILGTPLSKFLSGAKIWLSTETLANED
UniProt P00414, whole entry, looked up: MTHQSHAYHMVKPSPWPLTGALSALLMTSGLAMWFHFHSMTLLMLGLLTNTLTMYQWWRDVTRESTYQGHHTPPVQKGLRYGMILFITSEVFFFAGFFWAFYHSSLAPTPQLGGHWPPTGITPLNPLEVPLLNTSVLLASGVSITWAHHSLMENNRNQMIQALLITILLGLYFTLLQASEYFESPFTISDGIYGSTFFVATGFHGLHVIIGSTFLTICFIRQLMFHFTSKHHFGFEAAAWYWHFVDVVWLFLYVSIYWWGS
UniProt Q14872: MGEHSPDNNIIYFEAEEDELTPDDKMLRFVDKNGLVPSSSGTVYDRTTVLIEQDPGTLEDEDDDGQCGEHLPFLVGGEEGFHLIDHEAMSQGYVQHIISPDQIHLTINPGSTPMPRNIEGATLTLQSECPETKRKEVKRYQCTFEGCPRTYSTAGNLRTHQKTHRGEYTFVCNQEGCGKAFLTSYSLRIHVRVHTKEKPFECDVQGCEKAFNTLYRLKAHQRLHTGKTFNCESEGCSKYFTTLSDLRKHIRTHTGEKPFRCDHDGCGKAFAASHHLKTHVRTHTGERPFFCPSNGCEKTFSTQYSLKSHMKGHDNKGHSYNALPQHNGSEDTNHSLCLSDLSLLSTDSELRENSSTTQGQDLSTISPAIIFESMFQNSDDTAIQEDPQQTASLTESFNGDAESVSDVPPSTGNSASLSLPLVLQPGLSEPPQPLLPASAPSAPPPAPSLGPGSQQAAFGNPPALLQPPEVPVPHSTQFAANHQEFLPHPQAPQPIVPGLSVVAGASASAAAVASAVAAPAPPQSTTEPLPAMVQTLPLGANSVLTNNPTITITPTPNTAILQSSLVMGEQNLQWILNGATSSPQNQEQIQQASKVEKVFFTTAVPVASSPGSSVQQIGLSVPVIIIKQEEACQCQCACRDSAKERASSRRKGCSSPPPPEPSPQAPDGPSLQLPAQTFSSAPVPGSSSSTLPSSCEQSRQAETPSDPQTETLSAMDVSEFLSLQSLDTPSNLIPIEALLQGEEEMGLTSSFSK

What was measured:
Assay in all cases: log2 fold change, soluble protein after heating vs DMSO (PISA); higher = thermal stabilisation; K562 lysate, 10 uM; active = over 0.2 and 3.5 SD of the protein, either way, in both replicates (recomputed)
ibrutinib = compound: C=CC(=O)N1CCC[C@@H](n2nc(-c3ccc(Oc4ccccc4)cc3)c3c(N)ncnc32)C1 [ibrutinib]
Method in brief: (§1)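 Dounce homogenisation of K562 pellets in PBS pH 7.4 with 1 mM MgCl2 produced a crude extract, used at 1 mg/mL protein. Exposure to 10 μM compound lasted 30 min, and aliquots were then heated for 3 min across 48°C-58°C, pooled and brought to 0.5% NP-40 at 4°C. The supernatant after 21,000xg for 90 min was quantified by TMTpro 16plex LC-MS/MS with channel sums equalised. Duplicate values are given as log-two fold change in thermal stability relative to solvent controls.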

[1] = compound: CC(=O)c1cnc2ccc(-c3cc(Cl)c(O)c(Cl)c3)nc2c1N[C@H]1CC[C@H](CN(C)C)CC1
Method in brief: as §1

ralimetinib = compound: CC(C)(C)Cn1c(N)nc2ccc(-c3[nH]c(C(C)(C)C)nc3-c3ccc(F)cc3)nc21 [ralimetinib]
Method in brief: as §1

[2] = compound: CC(C)(O)CC(=O)NCCn1ccc2ncnc(Nc3ccc(Oc4cccc(C(F)(F)F)c4)c(Cl)c3)c21
Method in brief: as §1

[3] = compound: CC1=C(C(CC(=O)N1)C2=CC=C(C=C2)C(F)(F)F)C(=O)NC3=C(C=C4C(=C3)C=NN4)F
Method in brief: as §1

[4] = compound: CC1=C(C=C(C=C1)NC(=O)C2=CC(=CC=C2)C(C)(C)C#N)NC3=CC4=C(C=C3)N=CN(C4=O)C
Method in brief: as §1

[5] = compound: CC1=C(C=C(C=C1)NC(=O)C2=CC(=CC=C2)N(C)C)NC(=O)C3=CC=C(C=C3)O
Method in brief: as §1

[6] = compound: CC1=CC=C(C=C1)SC2=C3C=C(SC3=CN=C2)C(=O)N
Method in brief: as §1

vemurafenib = compound: CCCS(=O)(=O)Nc1ccc(F)c(C(=O)c2c[nH]c3ncc(-c4ccc(Cl)cc4)cc23)c1F [vemurafenib]
Method in brief: as §1

[7] = compound: CCCS(=O)(=O)Nc1ccc(F)c(C(=O)c2c[nH]c3ncc(Cl)cc23)c1F
Method in brief: as §1

barasertib = compound: CCN(CCCOc1ccc2c(Nc3cc(CC(=O)Nc4cccc(F)c4)[nH]n3)ncnc2c1)CCOP(=O)(O)O [barasertib]
Method in brief: as §1

[8] = compound: CC[C@@H]1C(=O)N(C)c2cnc(Nc3ccc(C(=O)NC4CCN(C)CC4)cc3OC)nc2N1C1CCCC1
Method in brief: as §1

volasertib = compound: CC[C@@H]1C(=O)N(C)c2cnc(Nc3ccc(C(=O)N[C@H]4CC[C@H](N5CCN(CC6CC6)CC5)CC4)cc3OC)nc2N1C(C)C [volasertib]
Method in brief: as §1

[9] = compound: CCn1c(C(=O)N(C2CC2)C2CC2)cc2c3c(ncn3C)c(Nc3cc(C)n(C)n3)nc21
Method in brief: as §1

[10] = compound: CCn1cc(-c2ccnc3[nH]c(-c4cccc(CN(C)C)c4)cc23)c(-c2ccc(NC(=O)N(C)C)cc2)n1
Method in brief: as §1

[11] = compound: CN1CCC(CNc2ccc3ncc(-c4cccc(OC(F)(F)F)c4)n3n2)CC1
Method in brief: as §1

sotrastaurin = compound: CN1CCN(c2nc(C3=C(c4c[nH]c5ccccc45)C(=O)NC3=O)c3ccccc3n2)CC1 [sotrastaurin]
Method in brief: as §1

[12] = compound: CC(C)C1=C2N=C(C=C(N2N=C1)NCC3=CC=CC=C3)NCCCCCCN
Method in brief: as §1

[13] = compound: CC1=C(C2=C(C=C1)C(=O)C3=CC=CC=C3N2CCCN)C
Method in brief: as §1

saracatinib = compound: CN1CCN(CCOc2cc(OC3CCOCC3)c3c(Nc4c(Cl)ccc5c4OCO5)ncnc3c2)CC1 [saracatinib]
Method in brief: as §1

Measured: log2 fold change

MRPS14 (UniProt O60783)
inactive: ibrutinib -0.088 | [1] 0.056 | ralimetinib 0.048 | [2] -0.049 | [3] 0.023 | [4] 0.098 | [5] 0.211 | [6] -0.015 | vemurafenib 0.395 | [7] 0.012 | barasertib -0.088 | [8] 0.023 | volasertib 0.007 | [9] 0.007 | [10] 0.011 | [11] 0.133 | sotrastaurin -0.065

MRS2 isoform 2 (UniProt Q9HD23)
inactive: [3] 0.07 | [4] 0.088 | sotrastaurin -0.051

MTO1 isoform 4 (UniProt Q9Y2Z2)
inactive: ibrutinib 0.11 | ralimetinib 0.001 | [2] -0.045 | [12] 0.04 | [3] 0.136 | [13] -0.076 | [4] 0.019 | [5] 0.008 | vemurafenib 0.028 | barasertib -0.148 | [8] -0.014 | [9] 0.063 | [10] 0.105 | [11] 0.031 | saracatinib 0.011 | sotrastaurin 0.031

MRTFA (UniProt Q969V6)
inactive: ibrutinib 0.062 | ralimetinib 0.057 | [2] -0.219 | [12] -0.075 | [3] 0.012 | [13] -0.034 | [4] 0.017 | [5] -0.018 | vemurafenib -0.05 | barasertib 0.112 | [8] 0.086 | [9] 0.157 | [10] 0.016 | [11] 0 | saracatinib -0.102 | sotrastaurin -0.022

MUC5AC (UniProt P98088)
inactive: ralimetinib -0.067 | [2] 0.06 | [3] 1.44 | [5] 0.041 | [9] 0

MTRF1 isoform 2 (UniProt O75570)
inactive: [4] 0.047 | [10] -0.373 | [11] 0.033 | sotrastaurin -0.09

MT1L (UniProt Q93083)
inactive: ibrutinib 0.246 | [4] -0.031 | barasertib 0.132 | [10] 0.12 | [11] -0.012 | sotrastaurin 0.054

MSH4 (UniProt O15457)
inactive: ralimetinib -0.005 | [2] 0.123 | [5] -0.194 | vemurafenib -0.145 | [9] 0.133 | [10] -0.345 | [11] 0.142

MSL3 (UniProt Q8N5Y2)
inactive: ralimetinib 0.084 | [2] -0.099 | [12] -0.066 | [3] 0.104 | [13] -0.175 | [4] 0.039 | [5] -0.005 | vemurafenib -0.015 | [8] -0.123 | [9] -0.089 | [10] -0.018 | [11] 0.009 | saracatinib 0.085 | sotrastaurin 0.007

MTPAP (UniProt Q9NVV4)
inactive: [1] 0.044 | ralimetinib -0.003 | [2] 0.036 | [12] 0.04 | [3] 0.085 | [13] 0.031 | [4] 0.002 | [5] 0.014 | [6] 0.023 | vemurafenib 0.048 | [7] 0.072 | [8] -0.05 | volasertib -0.085 | [9] 0.104 | [10] 0.12 | [11] -0.107 | saracatinib -0.03 | sotrastaurin 0.076

MTFMT (UniProt Q96DP5)
inactive: [1] -0.003 | [12] -0.072 | [3] 0.209 | [13] -0.215 | [4] -0.022 | [6] -0.343 | [7] 0.104 | volasertib -0.133 | [10] -0.812 | [11] -0.085 | saracatinib -0.17 | sotrastaurin -0.129

MUC19 (UniProt Q7Z5P9)
inactive: ibrutinib 0.023 | [1] -0.052 | ralimetinib -0.194 | [2] -0.177 | [5] 0.023 | [6] -0.01 | [7] -0.083 | barasertib -0.085 | volasertib -0.024 | [9] -0.114 | [10] 0.094 | [11] 0.013

MTMR10 (UniProt Q9NXD2)
inactive: [1] -0.007 | ralimetinib 0.078 | [2] -0.021 | [12] 0.114 | [3] -0.184 | [13] 0.236 | [4] 0.021 | [5] 0.312 | [6] -0.033 | [7] 0.002 | volasertib -0.072 | [9] -0.094 | saracatinib 0.049 | sotrastaurin -0.185

MTURN (UniProt Q8N3F0)
inactive: ralimetinib 0.001 | [2] -0.022 | [13] 0.043 | [4] 0.026 | [5] -0.013 | [8] 0.06 | [9] 0.045 | saracatinib -0.045 | sotrastaurin 0.017

Copied from the results shown (two entries):
MTPAP (UniProt Q9NVV4)
inactive: [1] 0.044 | ralimetinib -0.003 | [2] 0.036 | [12] 0.04 | [3] 0.085 | [13] 0.031 | [4] 0.002 | [5] 0.014 | [6] 0.023 | vemurafenib 0.048 | [7] 0.072 | [8] -0.05 | volasertib -0.085 | [9] 0.104 | [10] 0.12 | [11] -0.107 | saracatinib -0.03 | sotrastaurin 0.076

MTFMT (UniProt Q96DP5)
inactive: [1] -0.003 | [12] -0.072 | [3] 0.209 | [13] -0.215 | [4] -0.022 | [6] -0.343 | [7] 0.104 | volasertib -0.133 | [10] -0.812 | [11] -0.085 | saracatinib -0.17 | sotrastaurin -0.129

The list continues:

MT-CO3 (UniProt P00414)
inactive: [13] 0.149 | vemurafenib -0.011 | [10] -0.295 | [11] 0.26 | saracatinib 0.063

MRPS2 (UniProt Q9Y399)
inactive: [1] 0.013 | ralimetinib 0.027 | [2] 0.051 | [12] 0.007 | [3] 0 | [13] -0.001 | [4] 0.004 | [5] 0.025 | [6] 0.029 | vemurafenib -0.014 | [7] 0.002 | [8] -0.158 | volasertib -0.013 | [9] 0.057 | [10] -0.001 | [11] -0.071 | saracatinib 0.003 | sotrastaurin 0.05

MTF1 (UniProt Q14872)
inactive: [10] 0.238 | [11] -0.115
